Source: US20240150474A1 (Regeneron, published 2024)
Changes are numbered by the printed parent chain. No constants are given. Whether binding was seen depends on the method and setting. Some entries that bind do so weakly or less than the wild type. Values belong to the binder of their own block, whether it stands above or below them.

Protein sequences, listed by entry. Tags and fused reporters are not part of them. Residues count along the entry.
UniProt P37172, residues 21-123: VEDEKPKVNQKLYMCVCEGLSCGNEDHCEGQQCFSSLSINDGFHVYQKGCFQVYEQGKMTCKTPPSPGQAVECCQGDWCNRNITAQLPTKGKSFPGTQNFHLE

Assays:
dimeric human ACVR1 = molecular target: T1, dimeric human ACVR1 (human, UniProt Q04771 21-123, limits assumed); experiment: SPR Biacore T200, mAb captured by anti-human Fab, dimeric receptor injected, 25C
T1 construct: ACVR1'; also called Human Receptor ACVR1
T1 sequence (looked up): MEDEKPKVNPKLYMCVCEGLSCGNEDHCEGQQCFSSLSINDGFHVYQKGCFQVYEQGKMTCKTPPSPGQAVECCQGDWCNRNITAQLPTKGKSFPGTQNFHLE

dimeric mouse ACVR1 = molecular target: T2, dimeric mouse ACVR1 (mouse, UniProt P37172 21-123, limits assumed); experiment: as above
T2 construct: also called Mouse Receptor ACVR1
T2 sequence (looked up): T1 sequence (looked up) with M1V, P10Q

binding (dimeric human ACVR1): binds
binding (dimeric mouse ACVR1): binds
B1: REGN 5168 (antibody, human IgG4 S228P, kappa, V domains shown)
VH: QVQLVQSGAEVKEPGASVKVSCKASGYTFAEYYMHWVRQAPGQGLEWMGAINPSGSHTSYAQKFQGRVTMTRDTSTSTVYMELSSLRSEDTAVYYCARSISGKRGGDYYGMDVWGQGTTVTVSS
VL: DIQMTQSPSTLSASVGDRVTITCRASQSISSWLAWYQQKPGKAPKLLIYKASSLESGVPSRFSGSGSGTEFTLTISSLQPDDFATYYCQQYSIFPFTFGGGTKVEIKR
notes: also called REGN 5168-L1

binding (dimeric human ACVR1): binds
binding (dimeric mouse ACVR1): binds
B2: REGN 5167 (antibody, human IgG4 S228P, kappa, V domains shown)
VH: QLQLQESGPGLVKPSETLSLTCTVSGGSITSSSYYWAWIRQPPGKGLEWIGKIYYSGSTHYNPSLKSRVTISVDTSKNQFSLKLSSVTAADTAVYYCARVGGHGYGDSAGLAFDIWGQGTMVTVSS
VL: EIVLTQSPGTLSLSPGERATLSCRASQSVSSAFLAWYQQKPGQAPRLLIYGASYRHTGIPDRFSGSGSGTDFTLTISRLEPEDFAVYYCQHYGVGPRTFGGGTKVEIKR
notes: also called REGN 5167-L1
